In PubChem BioAssay AID2685 (National Center for Advancing Translational Sciences (NCATS), 2010) one finds AC50 and cell number change data, which are given here for 36 compounds.

Structures are written as SMILES. The list shows a part of the results. The main result of the screen is listed elsewhere. These columns were measured beside it and carry no call. The list favours compounds with an active or inconclusive main result. Words in brackets tell the shape of the fitted curve; partial curves, single points and poor fits give uncertain potencies.

This assay in a line: qHTS Assay for Lipid Storage Modulators in Drosophila S3 Cells.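 As to cell number change: cells counted by Cell Tracker Red CMTPX staining in the red channel.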 The settings on record: BODIPY lipid droplet fluorescence, 18-24 h; for cell number change: measured here: cell count max response, cells fed with added oleic acid. The gist of the method:
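Drosophila S3 cells got compounds at several concentrations plus oleic acid (400 uM solution). Laser-scanning cytometry with 488 nm excitation read lipid droplets at 500-530 nm and cells at 575-640 nm. Percent activity was relative to 20 uM Triacsin C.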
A general note: qHTS replaces the single test concentration by a dilution series.

Setting [1] is: measured here: lipid fluorescence (Fed channel) AC50, cells fed with added oleic acid.
The mark [2] stands for this setting: measured here: cell number channel AC50, cells fed with added oleic acid.

For the compound `CCCCOC(=O)C1=C(N)OC2=C(C(=O)CCC2)[C@]12C(=O)N(C)c1ccccc12`, the concentration at half-maximal activity (AC50) under setting [1] is 4.11 µM [falling, partial curve, poor fit].
For `Cc1nc2c(-c3ccc(F)cc3)c(C)nn2c(C)c1CCC(=O)N1CCC2(CC1)OCCO2`, the cell number change was -29.1%. Under setting [1], the AC50 is 6.51 µM [rising, single point].
For the compound `CC(NC1CCCCC1)C(O)C12CC3CC(CC(C3)C1)C2` (centres undefined), the cell number change was -0.643%. For the same compound, the AC50 under setting [1] is 0.731 µM [falling, single point].
As for `C[C@H](NC(=O)N1C[C@H]2C[C@@H](C1)c1cccc(=O)n1C2)C(=O)Nc1ccccc1F`, the cell number change is 11.4%.
Consider `O=C(C1CC(c2ccccc2O)=NO1)N1CCC2(CC1)OCCO2` (centres undefined), for which the cell number change came out at 33.5%. In addition, under setting [2], the half-maximal activity concentration (AC50) was 16.4 µM [rising, single point].
On to `CCN1CCN(Cc2cc(C(C)(C)C)c(O)c(C(C)(C)C)c2)CC1`, for which the cell number change is -34.7%. Further, under setting [2], the AC50 is 0.116 µM [falling, full curve, poor fit]. For the same compound, under setting [1], the AC50 is 1.03 µM [falling, full curve].
In the case of `COc1ccccc1-n1c(O)c(/C=N/NC(=S)Nc2ccccc2)c(=O)[nH]c1=S`, the cell number change is -25.2%. Also, under setting [1], the AC50 is 0.00461 µM [falling, full curve].
`CCCS(=O)(=O)N1CCCC(C(=O)N2CCC3(CC2)OCCO3)C1` (centres undefined): the cell number change is -41.8%. Besides, under setting [2], the AC50 is 20.6 µM [falling, partial curve, poor fit].
In the case of `O=C1NC(=O)C(CCc2ccncc2)(Cc2ccc3c(c2)OCO3)C(=O)N1CCc1ccccc1` (centres undefined), the cell number change worked out at 56.7%. The concentration at half-maximal activity (AC50) under setting [2] was 1.84 µM [rising, full curve]. The half-maximal activity concentration (AC50) under setting [1] is 2.06 µM [rising, partial curve].
For `CN(C(=O)c1ccco1)C1(c2ccccc2Cl)CCCCC1=O` (centres undefined), the cell number change was -21.5%. For the same compound, under setting [2], the AC50 was 0.146 µM [falling, full curve, poor fit]. The AC50 under setting [1] was 0.231 µM [falling, full curve, poor fit].
As to `COC(=O)C1=C(c2cccc(C#N)c2)C[C@@H]2CC[C@H]1N2C(=O)NCCNC(C)=O`, the cell number change worked out at 3.5%. In addition, under setting [1], the AC50 was 25.9 µM [rising, single point].
In the case of `Cc1ccccc1NC1=NCC(C)S1` (centres undefined), the cell number change was -5.4%. Under setting [2], the AC50 is 1.84 µM [rising, partial curve, poor fit].
For the compound `Cc1cc(/C=C2\C(=O)NC(=O)N(Cc3ccccc3)C2=O)c(C)n1C1CC1`, the cell number change was 29.1%.
With `C[C@]12CCC(=O)C=C1CCC1C2CC[C@@]2(C)C1CC[C@@]2(O)CC#N` (some centres undefined), the cell number change is -32.5%. The AC50 under setting [2] is 23.1 µM [falling, single point].
In the case of `CCCN(CCC)CCNS(=O)(=O)c1ccc2c(c1)oc(=O)n2C`, under setting [2], the AC50 is 29.1 µM [falling, single point].
Regarding `CC(C)c1ccc(N2C(=O)NC(=O)/C(=C/C=C/c3ccco3)C2=O)cc1`, the cell number change was -36.3%. Moreover, the AC50 under setting [2] is 11.6 µM [falling, partial curve]. Further, the AC50 under setting [1] was 10.3 µM [falling, partial curve].
On to `COc1ccc(C2SCC(=O)Nc3c2c(C)nn3-c2ccccc2)cc1OC` (centres undefined), for which the cell number change was -10.7%. Under setting [1], the AC50 was 0.58 µM [falling, full curve, poor fit].
For `OC1(c2cccnc2)CC2CCC(C1)N2Cc1nnnn1Cc1ccccc1` (centres undefined), the cell number change came out at 4.97%. The concentration at half-maximal activity (AC50) under setting [1] was 7.31 µM [rising, partial curve].
Take `CC(=O)N(C1=NCCCS1)c1ccccc1F`: the cell number change is 2.3%. Moreover, the AC50 under setting [1] was 6.51 µM [falling, single point].
Turning to `O=C(Cc1ccccc1)OCCNC(=O)c1cccnc1`, the cell number change came to 42.9%. Also, the AC50 under setting [2] was 2.91 µM [rising, partial curve].
Consider `CCCCn1c(O)c(C=NCCN2CCCCC2)c(=O)[nH]c1=O`, for which the cell number change turned out to be 0.862%.
For `O=C1CCN(C(=O)CNC(=O)Cc2ccccc2)CC1`, the cell number change was 23.9%. Further, the concentration at half-maximal activity (AC50) under setting [1] was 29.1 µM [rising, single point].
For the compound `Cc1onc(-c2c(Cl)cccc2Cl)c1C(=O)Nc1ccc2c(C(F)(F)F)cc(=O)oc2c1`, the cell number change came out at 2.79%. The AC50 under setting [2] was 2.91 µM [rising, single point].
In the case of `COc1ccc([N+](=O)[O-])cc1N=Cc1c(O)n(CCc2ccccc2)c(=O)n(C(C)C)c1=O`, the cell number change worked out at 13.6%. Further, the AC50 under setting [1] was 0.731 µM [rising, full curve, poor fit].
As for `CCN(CCNc1ccc([N+](=O)[O-])c2cccnc12)S(=O)(=O)c1ccc(Cl)cc1`, the cell number change is -10.2%. Besides, the AC50 under setting [2] is 0.058 µM [rising, full curve, poor fit]. Under setting [1], the AC50 was 0.0206 µM [rising, full curve].
For the compound `O=P(Oc1ccccc1)(Oc1ccccc1)N1CCN(c2ccc(F)cc2)CC1`, the cell number change is -9.29%. The AC50 under setting [2] is 6.51 µM [falling, single point].
Regarding `CC12CN3CC(C)(CN(C1)C3c1cccnc1)C2=O` (centres undefined), the cell number change was -7.36%. For the same compound, under setting [1], the AC50 was 6.51 µM [falling, single point].
For the compound `COC(=O)C1=C(N)Oc2c(c(=O)oc3ccccc23)[C@]12C(=O)N(C)c1ccccc12`, the cell number change came out at 3.27%. Besides, the AC50 under setting [1] was 1.16 µM [rising, full curve].
Turning to `O=C(CN1C(=O)CN=C(c2ccccc2Cl)c2cc(Cl)ccc21)NCc1ccco1`, the cell number change was -9.13%. Moreover, the concentration at half-maximal activity (AC50) under setting [1] is 16.4 µM [falling, single point].
In the case of `Cn1c(O)c(C(c2ccncc2)c2c(O)n(C)c(=S)n(C)c2=O)c(=O)n(C)c1=S`, the cell number change is -34.5%. The AC50 under setting [2] is 0.13 µM [falling, full curve, poor fit]. Besides, the AC50 under setting [1] is 3.66 µM [falling, full curve].
Take `CC(C)(C)c1ccc(CSc2cnn(C(C)(C)C)c(=O)c2Cl)cc1`: the cell number change was -38%. The AC50 under setting [2] was 0.0731 µM [falling, full curve]. Further, the AC50 under setting [1] is 0.0058 µM [falling, full curve].
Regarding `O=C(NCc1ccccc1)c1cccn(Cc2cccc(Cl)c2)c1=O`, the cell number change is 6.26%. The AC50 under setting [1] was 0.92 µM [falling, full curve].
On to `Nc1ccc(C2(c3ccc(N)cc3)CN3CCC2CC3)cc1`, for which the cell number change was -1.27%.
As to `COc1ccc(N2C(=O)/C(=C/c3ccc(OC)c(OC)c3)C(=O)NC2=S)cc1`, the cell number change worked out at 2.46%. The AC50 under setting [1] was 20.6 µM [rising, partial curve].
As for `COC(=O)CC1=C(C(=O)OC)C2(C(=O)Nc3c(C)cccc32)C(C#N)=C(N)O1` (centres undefined), the cell number change worked out at 14.5%. For the same compound, under setting [1], the AC50 was 6.51 µM [rising, single point].
On to `COc1ccc(NC2=NC(C)(C)CS2)cc1`, for which the cell number change is -1.23%. Besides, the half-maximal activity concentration (AC50) under setting [2] was 4.11 µM [falling, single point]. Also, the AC50 under setting [1] is 0.58 µM [falling, partial curve, poor fit].

Broadly, the AC50 is the midpoint of the concentration-response curve, whichever way the signal moves. A lower AC50 goes with greater potency.
